The data set in a line: Isothermal titration calorimetry, peptide binding to LPS. The settings on record: ITC; for First binding event n (number of peptide molecules binding to one LPS molecule) / First binding event ΔH (enthalpy changes) / First binding event −TΔS (entropy changes) / Second binding event n (number of peptide molecules binding to one LPS molecule) / Second binding event ΔH (enthalpy changes) / Second binding event −TΔS (entropy changes): 37 °C, two independent models, N = 2 averaged. Also on record: species or system Escherichia coli. How it is done:
Isothermal titration calorimetry (ITC) was performed with the Low Volume NanoITC (TA Instruments-Waters LLC, New Castle, DE, USA) to determine interaction between LPS and the different peptides. 100 μM UltraPure LPS E. coli O111:B4 was diluted in MilliQ, after which 4x dilution in dPBS (Gibco) was made. Peptides were diluted to 800 μM in MilliQ, followed by 4-fold dilution in dPBS. The chamber was filled with 164 μl LPS, the peptide was titrated into the chamber with 1.96 μl every 300 seconds. Experiments were performed at 37 °C and analyzed using the Nano Analyze software (TA instruments-Waters LLC). All experiments were performed 2 times and corrected for buffer in buffer titration, after which the both experiments were averaged. Two independent models were used, except for LL-37 with one independent model fit, to determine the peptide-LPS interaction.

Here are results for eight substances from paper PMC6423055, “Cathelicidins PMAP-36, LL-37 and CATH-2 are similar peptides with different modes of action” (Scientific Reports, 2019).

Positions of bridges follow the written chain, without caps; N, C: chain ends. Chains are numbered I, II in the order given. No end group written: not given here.

As to “Ac-KRLKKIGKVLKWIPPIVGSIPLGCG (disulfide (positions not given here)) [Peptide P12, PMAP-36 analog with N-terminal truncation of 11 amino acids]”, the “First binding event n (number of peptide molecules binding to one LPS molecule)” value (“First binding event n” for short) came out at 0.300, the “First binding event ΔH (enthalpy changes)” value was -9.226 kcal/mol, the “First binding event −TΔS (entropy changes)” value is given as 3.95 J/mol·K and the “Second binding event n (number of peptide molecules binding to one LPS molecule)” value (shortened to “Second binding event n”) was 2.763. Besides, the “Second binding event ΔH (enthalpy changes)” value is 7.823 kcal/mol and the “Second binding event −TΔS (entropy changes)” value was −65.81 J/mol·K.

Take “I: Ac-KIGKVLKWIPPIVGSIPLGCG / II: Ac-KIGKVLKWIPPIVGSIPLGCG (disulfide I:20-II:20) [Peptide P16]”: the “First binding event n” value came out at 1.069, the “First binding event ΔH (enthalpy changes)” value was -16.14 kcal/mol, the “First binding event −TΔS (entropy changes)” value amounted to 34.17 J/mol·K and the “Second binding event n” value is 1.979. Moreover, the “Second binding event ΔH (enthalpy changes)” value was 14.91 kcal/mol and the “Second binding event −TΔS (entropy changes)” value was −94.4 J/mol·K.

On to “I: Ac-GRFRRLRKKTRKRLKKIGKVLKWIPPIVGSIPLGCG / II: Ac-GRFRRLRKKTRKRLKKIGKVLKWIPPIVGSIPLGCG (disulfide I:35-II:35) [PMAP-36]”, for which the “First binding event n” value is recorded as 0.337, the “First binding event ΔH (enthalpy changes)” value was -23.901 kcal/mol, the “First binding event −TΔS (entropy changes)” value was 70.36 J/mol·K and the “Second binding event n” value is on record as 2.706. For the same substance, the “Second binding event ΔH (enthalpy changes)” value amounted to 4.173 kcal/mol and the “Second binding event −TΔS (entropy changes)” value is reported as −55.23 J/mol·K. Moreover, the “LPS molecules bound by one dimer molecule” value (recalculated from monomer basis to dimer) is recorded as 1.35.

In the case of “Ac-GRFRRLRKKTRKRLKKIGKVLKWIPPIVGSIPLGS [mP1, monomeric analog of PMAP-36, Cys35 replaced by serine, last amino acid deleted]”, the “First binding event n” value amounted to 0.509, the “First binding event ΔH (enthalpy changes)” value is -6.467 kcal/mol, the “First binding event −TΔS (entropy changes)” value is listed as −10.03 J/mol·K and the “Second binding event n” value stood at 1.650. For the same substance, the “Second binding event ΔH (enthalpy changes)” value came to 6.647 kcal/mol and the “Second binding event −TΔS (entropy changes)” value was −62.42 J/mol·K.

As to “Ac-KIGKVLKWIPPIVGSIPLGS [mP16, monomeric analog of P16]”, the “First binding event n” value amounted to 0.371, the “First binding event ΔH (enthalpy changes)” value was -21.77 kcal/mol, the “First binding event −TΔS (entropy changes)” value is 57.13 J/mol·K and the “Second binding event n” value is 0.751. The “Second binding event ΔH (enthalpy changes)” value stood at 23.89 kcal/mol and the “Second binding event −TΔS (entropy changes)” value was −130.80 J/mol·K.

With “Ac-KRLKKIGKVLKWIPPIVGSIPLGS [mP12, monomeric analog of P12]”, the “First binding event n” value came to 0.347, the “First binding event ΔH (enthalpy changes)” value is -23.901 kcal/mol, the “First binding event −TΔS (entropy changes)” value is recorded as 66.66 J/mol·K and the “Second binding event n” value stood at 1.214. The “Second binding event ΔH (enthalpy changes)” value stood at 20.21 kcal/mol and the “Second binding event −TΔS (entropy changes)” value is −116.50 J/mol·K.

As for “I: Ac-RKKTRKRLKKIGKVLKWIPPIVGSIPLGCG / II: Ac-RKKTRKRLKKIGKVLKWIPPIVGSIPLGCG (disulfide I:29-II:29) [Peptide P7]”, the “First binding event n” value turned out to be 0.305, the “First binding event ΔH (enthalpy changes)” value was -23.35 kcal/mol, the “First binding event −TΔS (entropy changes)” value came out at 68.53 J/mol·K and the “Second binding event n” value is on record as 2.168. The “Second binding event ΔH (enthalpy changes)” value came to 8.439 kcal/mol and the “Second binding event −TΔS (entropy changes)” value is recorded as −69.72 J/mol·K.

Consider “Ac-RKKTRKRLKKIGKVLKWIPPIVGSIPLGS [mP7, monomeric analog of P7]”, for which the “First binding event n” value is 0.392, the “First binding event ΔH (enthalpy changes)” value is -6.269 kcal/mol, the “First binding event −TΔS (entropy changes)” value is on record as −13.09 J/mol·K and the “Second binding event n” value came out at 1.499. The “Second binding event ΔH (enthalpy changes)” value was 6.542 kcal/mol and the “Second binding event −TΔS (entropy changes)” value is −66.12 J/mol·K.
